In PMC7819943, “Rice protein-binding microarrays: a tool to detect cis-acting elements near promoter regions in rice”:
This is one part of the list.

The chains behind the UniProt entries cited, without tags or fusion partners.
UniProt Q0JBA9, entry or part of it: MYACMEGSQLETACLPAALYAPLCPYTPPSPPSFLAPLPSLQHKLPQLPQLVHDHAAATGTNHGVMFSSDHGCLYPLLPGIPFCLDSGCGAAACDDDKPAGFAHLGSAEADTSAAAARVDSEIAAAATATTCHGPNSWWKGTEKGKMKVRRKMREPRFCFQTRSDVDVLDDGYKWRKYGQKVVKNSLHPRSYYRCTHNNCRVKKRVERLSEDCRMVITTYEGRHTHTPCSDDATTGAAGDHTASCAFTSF

target: OsWRKY34 (Oryza sativa, UniProt Q0JBA9 1-250); assay: protein-binding microarray (RPBM); PBS, 2% BSA, 51.3 ng/ul salmon testes DNA, 50 uM zinc acetate, 200 nM TF, 25 C, 1 h; high values mean tight binding; details: protein: recombinant; tags: N-terminal polyhistidine and DsRed monomer fusion (pET32a); label: CyDye5-dUTP incorporated in the synthesized complementary strand; 3' TTTTT single-stranded linker to array surface; dsDNA, one strand shown
Procedure, shortened: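 The binding signal for each feature is its fluorescence intensity in arbitrary units. An Axon 4000B scanner was used to read a custom Agilent array that had been made double-stranded with Cy5-dUTP primer extension, blocked with 2% BSA, incubated at 25 °C for 1 h with 200 nM protein in PBS, 2% BSA, salmon testes DNA and 50 µM zinc acetate, and washed. The protein was an N-terminal polyhistidine–DsRed transcription factor fusion from E. coli BL21-CodonPlus, purified on Ni–NTA.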

Sequence | binding signal
GGGAGGGCTAACCTTGGATGGACTAGAGCCGCGGCGGCGGCGGAGTCACCTAGTGCAG | 10300 fluorescence intensity (a.u.)
CGCGATATCCTCGTCCCGTACGTGTTGCCCATTTTGCCGCCGGAGTCACCTAGTGCAG | 10600 fluorescence intensity (a.u.)
TGTTTGATCGACCTCTCTTCTTTGTTTTTCTCGTTCGATTCGGAGTCACCTAGTGCAG | 11100 fluorescence intensity (a.u.)
ACATGTCCAGGGGTATATTTGTCCATTCACCACAAATTTACGGAGTCACCTAGTGCAG | 8800 fluorescence intensity (a.u.)
ATCTGTAGTCCGTTGCTCTTCTCTCTCATATTTTATCTCGCGGAGTCACCTAGTGCAG | 11700 fluorescence intensity (a.u.)
TTTTTAATAGATGACGCCGTTGACTTTTTCTCACATGTTTCGGAGTCACCTAGTGCAG | 34300 fluorescence intensity (a.u.)
CCTTTTCGCAAACCAAGCAATACTTTCTTTAGGCGTCCTCCGGAGTCACCTAGTGCAG | 8060 fluorescence intensity (a.u.)
TCCCGCGGGTCCCACTTCCTTTTCTCTTCTTTCTTCTAGTCGGAGTCACCTAGTGCAG | 8330 fluorescence intensity (a.u.)
CAATTTTTTCTCATCAGGTATTAATATCTGGGTTTGGATTCGGAGTCACCTAGTGCAG | 8070 fluorescence intensity (a.u.)
CCGCCCGCCTTCCACTGCCAGCTGAAGGTACTGGAGCTTTCGGAGTCACCTAGTGCAG | 9220 fluorescence intensity (a.u.)
AGCACATTTGCACTCCATTCAACATACTTTGCGAGTCCCTCGGAGTCACCTAGTGCAG | 8270 fluorescence intensity (a.u.)
AAGACGAATGGTCAAACATGTTTAAAAAAGTCAACGACGGCGGAGTCACCTAGTGCAG | 10600 fluorescence intensity (a.u.)
GGTCGAGATGCCCAGCTGGTAGGCCTATTTTCTTGACAAACGGAGTCACCTAGTGCAG | 8960 fluorescence intensity (a.u.)
CACCCGACGCCTCCTCCTGCCCGCCCGGATCTACCTCGGCCGGAGTCACCTAGTGCAG | 8390 fluorescence intensity (a.u.)
CTTCCCACTCTCACGTCTCCTCTCTTCCCCTCCGCGAAGCCGGAGTCACCTAGTGCAG | 9170 fluorescence intensity (a.u.)
TTCATGTGTTCTTGGTTGAATGTTTTGTTATGTGTGTTATCGGAGTCACCTAGTGCAG | 11400 fluorescence intensity (a.u.)
CATATATCCACTAATTAATTAATAAACGTTGACCAGTATGCGGAGTCACCTAGTGCAG | 8230 fluorescence intensity (a.u.)
AATCTCTCCTCCTCCCATCCCGCCGCGCCCGCGAGAGATCCGGAGTCACCTAGTGCAG | 8190 fluorescence intensity (a.u.)
ATGTTATAATGCGTCAATTGATGGCAACTGTTTCCATTGTCGGAGTCACCTAGTGCAG | 9350 fluorescence intensity (a.u.)
TTCCTGTTTCGCTTAAGTCTGCAATATGTTGTTGATGTTTCGGAGTCACCTAGTGCAG | 11300 fluorescence intensity (a.u.)
TAAAGTCAAACTGTTTTTTTAAGTTTGACCAAGCTTTTGACGGAGTCACCTAGTGCAG | 10400 fluorescence intensity (a.u.)
TTTCCGTTCCTTTCTTTCCTTCTCGCGTTTGCGTGGTGGGCGGAGTCACCTAGTGCAG | 10500 fluorescence intensity (a.u.)
TCGACTCACGACGCGCGTGCGCATATGGCCACCGTCTCCGCGGAGTCACCTAGTGCAG | 9140 fluorescence intensity (a.u.)

2 entries from above in another layout:
Sequence	binding signal
TGTTTGATCGACCTCTCTTCTTTGTTTTTCTCGTTCGATTCGGAGTCACCTAGTGCAG	11100 fluorescence intensity (a.u.)
CTTCCCACTCTCACGTCTCCTCTCTTCCCCTCCGCGAAGCCGGAGTCACCTAGTGCAG	9170 fluorescence intensity (a.u.)
